Our source for the binding values is doi:10.1101/2021.02.08.430339.

The chains behind the UniProt entries cited, without tags or fusion partners.
UniProt O94864: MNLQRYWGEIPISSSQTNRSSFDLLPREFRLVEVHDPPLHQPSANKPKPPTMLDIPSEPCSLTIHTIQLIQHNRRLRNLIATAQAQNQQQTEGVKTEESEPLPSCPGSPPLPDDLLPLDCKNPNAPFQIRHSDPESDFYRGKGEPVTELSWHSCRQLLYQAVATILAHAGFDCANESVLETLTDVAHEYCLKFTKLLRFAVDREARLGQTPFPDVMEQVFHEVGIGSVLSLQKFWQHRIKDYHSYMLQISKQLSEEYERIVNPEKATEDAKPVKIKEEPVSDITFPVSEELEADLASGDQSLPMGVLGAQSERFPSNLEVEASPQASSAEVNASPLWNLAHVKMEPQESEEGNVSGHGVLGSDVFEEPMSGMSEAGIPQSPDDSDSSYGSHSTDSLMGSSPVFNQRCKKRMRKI
UniProt P20226: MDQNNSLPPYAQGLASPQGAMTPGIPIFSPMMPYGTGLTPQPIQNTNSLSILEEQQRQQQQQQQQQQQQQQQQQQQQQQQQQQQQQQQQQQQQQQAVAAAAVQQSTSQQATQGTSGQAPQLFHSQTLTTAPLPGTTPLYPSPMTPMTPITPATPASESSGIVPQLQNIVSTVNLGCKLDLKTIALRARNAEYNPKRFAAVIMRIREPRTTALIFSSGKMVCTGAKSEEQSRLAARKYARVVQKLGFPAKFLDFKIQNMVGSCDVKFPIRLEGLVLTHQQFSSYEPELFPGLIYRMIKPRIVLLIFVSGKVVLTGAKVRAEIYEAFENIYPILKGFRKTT

The target in the test is Halo-FLAG-tagged chromosomal SUPT7L (human (endogenous in HeLa)) (UniProt O94864). The test can be described thus: affinity purification with mass spectrometry.

Results are given in words; binding and its absence hold for the method and conditions named. Binding seen in cells or lysates may run through a third protein. These calls come from enrichment with a bait or labelling near it, and not all partners need be listed. No binding means not detected with the bait.

As for “endogenous TBP (TATA-binding protein) (from UniProt P20226 1-339)”, the binding result is reported as “no binding”.
